Test results from the supplement of paper PMC10849652.
The list shows a part of the results.

Amino acid sequences for entries named in this document (tags omitted). A change or cut given only in a name is not applied to a line headed by its entry.
UniProt Q16643: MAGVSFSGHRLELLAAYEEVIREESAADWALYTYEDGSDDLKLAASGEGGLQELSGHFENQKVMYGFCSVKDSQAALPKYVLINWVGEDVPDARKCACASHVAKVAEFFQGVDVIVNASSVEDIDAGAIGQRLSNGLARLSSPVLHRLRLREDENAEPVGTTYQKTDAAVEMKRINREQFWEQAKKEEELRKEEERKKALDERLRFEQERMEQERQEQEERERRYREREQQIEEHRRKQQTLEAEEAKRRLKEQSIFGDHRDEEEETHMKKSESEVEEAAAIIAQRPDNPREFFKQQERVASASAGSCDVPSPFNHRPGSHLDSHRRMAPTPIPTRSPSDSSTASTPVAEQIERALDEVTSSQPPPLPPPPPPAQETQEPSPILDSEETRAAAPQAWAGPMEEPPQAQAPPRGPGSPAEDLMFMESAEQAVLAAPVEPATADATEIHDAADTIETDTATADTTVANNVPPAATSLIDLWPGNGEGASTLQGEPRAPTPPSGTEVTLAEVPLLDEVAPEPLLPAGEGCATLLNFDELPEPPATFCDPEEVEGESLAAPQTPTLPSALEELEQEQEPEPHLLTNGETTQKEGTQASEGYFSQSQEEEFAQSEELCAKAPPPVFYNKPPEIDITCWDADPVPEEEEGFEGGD
UniProt P09668: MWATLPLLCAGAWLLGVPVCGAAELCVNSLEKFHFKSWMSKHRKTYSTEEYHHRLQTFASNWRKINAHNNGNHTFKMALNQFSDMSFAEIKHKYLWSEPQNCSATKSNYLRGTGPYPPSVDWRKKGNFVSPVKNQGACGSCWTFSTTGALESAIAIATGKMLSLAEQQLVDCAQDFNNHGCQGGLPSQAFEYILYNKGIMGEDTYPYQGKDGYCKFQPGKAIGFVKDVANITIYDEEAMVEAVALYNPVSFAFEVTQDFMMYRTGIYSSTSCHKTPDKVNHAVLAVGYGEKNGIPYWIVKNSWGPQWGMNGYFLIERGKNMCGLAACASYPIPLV
UniProt Q14203, whole entry, looked up: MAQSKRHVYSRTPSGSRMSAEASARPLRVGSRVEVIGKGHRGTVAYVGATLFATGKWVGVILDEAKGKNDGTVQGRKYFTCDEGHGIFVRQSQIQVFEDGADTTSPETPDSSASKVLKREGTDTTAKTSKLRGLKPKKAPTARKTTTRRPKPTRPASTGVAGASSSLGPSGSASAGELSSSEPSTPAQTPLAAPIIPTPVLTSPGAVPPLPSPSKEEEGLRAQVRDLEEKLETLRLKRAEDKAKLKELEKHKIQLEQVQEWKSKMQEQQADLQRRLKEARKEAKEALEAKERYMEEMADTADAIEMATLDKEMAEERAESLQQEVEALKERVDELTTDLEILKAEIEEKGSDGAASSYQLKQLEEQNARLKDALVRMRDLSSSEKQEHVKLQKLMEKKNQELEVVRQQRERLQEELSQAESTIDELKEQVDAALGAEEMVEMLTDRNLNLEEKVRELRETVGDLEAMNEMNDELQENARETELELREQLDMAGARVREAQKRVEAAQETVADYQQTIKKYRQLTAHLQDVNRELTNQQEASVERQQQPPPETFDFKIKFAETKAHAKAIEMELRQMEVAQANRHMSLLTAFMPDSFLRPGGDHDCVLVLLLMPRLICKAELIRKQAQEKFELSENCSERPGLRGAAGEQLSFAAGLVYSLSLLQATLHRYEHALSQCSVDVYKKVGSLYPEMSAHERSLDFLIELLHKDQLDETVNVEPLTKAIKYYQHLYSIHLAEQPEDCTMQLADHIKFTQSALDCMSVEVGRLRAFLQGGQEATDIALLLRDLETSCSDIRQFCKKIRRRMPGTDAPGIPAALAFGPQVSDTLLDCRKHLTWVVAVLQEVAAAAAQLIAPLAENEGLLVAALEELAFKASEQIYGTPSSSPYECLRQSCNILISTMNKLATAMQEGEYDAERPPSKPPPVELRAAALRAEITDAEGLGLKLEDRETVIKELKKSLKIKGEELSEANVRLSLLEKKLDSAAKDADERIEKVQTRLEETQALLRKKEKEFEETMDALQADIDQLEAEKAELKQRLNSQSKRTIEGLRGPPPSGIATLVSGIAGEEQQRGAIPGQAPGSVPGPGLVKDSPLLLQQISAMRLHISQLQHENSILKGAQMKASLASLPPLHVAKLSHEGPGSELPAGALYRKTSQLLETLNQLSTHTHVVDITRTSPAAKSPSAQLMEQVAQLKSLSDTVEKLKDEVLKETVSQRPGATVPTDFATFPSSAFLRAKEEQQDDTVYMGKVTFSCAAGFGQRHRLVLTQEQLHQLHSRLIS
UniProt O00399, whole entry, looked up: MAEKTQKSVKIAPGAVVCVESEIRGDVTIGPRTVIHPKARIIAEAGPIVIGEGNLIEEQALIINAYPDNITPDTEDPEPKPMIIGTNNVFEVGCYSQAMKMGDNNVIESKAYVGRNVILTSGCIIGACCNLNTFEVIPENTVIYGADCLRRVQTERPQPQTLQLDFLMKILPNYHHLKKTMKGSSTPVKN
UniProt Q8WUE5: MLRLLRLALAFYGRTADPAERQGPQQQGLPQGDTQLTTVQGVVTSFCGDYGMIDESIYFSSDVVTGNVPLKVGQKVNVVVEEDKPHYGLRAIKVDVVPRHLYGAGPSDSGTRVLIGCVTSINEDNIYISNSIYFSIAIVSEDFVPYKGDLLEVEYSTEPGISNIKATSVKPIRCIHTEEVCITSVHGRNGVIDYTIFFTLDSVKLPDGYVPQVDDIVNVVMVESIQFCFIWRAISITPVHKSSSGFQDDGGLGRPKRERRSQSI
UniProt Q9NWV4: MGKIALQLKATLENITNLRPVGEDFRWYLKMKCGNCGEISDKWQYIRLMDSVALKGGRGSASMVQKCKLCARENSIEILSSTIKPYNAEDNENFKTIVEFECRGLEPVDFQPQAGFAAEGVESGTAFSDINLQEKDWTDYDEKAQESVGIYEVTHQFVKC
UniProt Q13619, whole entry, looked up: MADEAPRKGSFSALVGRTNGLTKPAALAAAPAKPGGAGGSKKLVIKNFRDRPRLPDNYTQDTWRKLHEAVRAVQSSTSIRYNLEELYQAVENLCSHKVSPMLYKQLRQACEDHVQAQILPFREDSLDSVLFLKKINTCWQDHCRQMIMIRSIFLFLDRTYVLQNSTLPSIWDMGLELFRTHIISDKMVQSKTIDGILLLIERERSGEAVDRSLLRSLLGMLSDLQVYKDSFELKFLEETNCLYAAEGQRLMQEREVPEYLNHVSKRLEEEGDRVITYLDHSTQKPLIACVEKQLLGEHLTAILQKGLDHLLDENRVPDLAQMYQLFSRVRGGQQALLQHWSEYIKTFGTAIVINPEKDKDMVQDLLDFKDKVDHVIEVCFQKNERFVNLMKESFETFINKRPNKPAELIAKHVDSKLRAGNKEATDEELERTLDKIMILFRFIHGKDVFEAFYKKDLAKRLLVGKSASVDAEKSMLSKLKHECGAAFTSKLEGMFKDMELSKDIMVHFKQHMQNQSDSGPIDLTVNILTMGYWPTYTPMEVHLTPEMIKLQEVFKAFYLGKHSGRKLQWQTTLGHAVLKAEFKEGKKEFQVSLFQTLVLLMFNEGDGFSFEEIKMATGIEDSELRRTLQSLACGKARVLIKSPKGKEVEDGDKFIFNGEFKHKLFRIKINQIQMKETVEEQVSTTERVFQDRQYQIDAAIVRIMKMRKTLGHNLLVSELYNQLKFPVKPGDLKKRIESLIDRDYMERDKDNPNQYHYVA
UniProt P26232: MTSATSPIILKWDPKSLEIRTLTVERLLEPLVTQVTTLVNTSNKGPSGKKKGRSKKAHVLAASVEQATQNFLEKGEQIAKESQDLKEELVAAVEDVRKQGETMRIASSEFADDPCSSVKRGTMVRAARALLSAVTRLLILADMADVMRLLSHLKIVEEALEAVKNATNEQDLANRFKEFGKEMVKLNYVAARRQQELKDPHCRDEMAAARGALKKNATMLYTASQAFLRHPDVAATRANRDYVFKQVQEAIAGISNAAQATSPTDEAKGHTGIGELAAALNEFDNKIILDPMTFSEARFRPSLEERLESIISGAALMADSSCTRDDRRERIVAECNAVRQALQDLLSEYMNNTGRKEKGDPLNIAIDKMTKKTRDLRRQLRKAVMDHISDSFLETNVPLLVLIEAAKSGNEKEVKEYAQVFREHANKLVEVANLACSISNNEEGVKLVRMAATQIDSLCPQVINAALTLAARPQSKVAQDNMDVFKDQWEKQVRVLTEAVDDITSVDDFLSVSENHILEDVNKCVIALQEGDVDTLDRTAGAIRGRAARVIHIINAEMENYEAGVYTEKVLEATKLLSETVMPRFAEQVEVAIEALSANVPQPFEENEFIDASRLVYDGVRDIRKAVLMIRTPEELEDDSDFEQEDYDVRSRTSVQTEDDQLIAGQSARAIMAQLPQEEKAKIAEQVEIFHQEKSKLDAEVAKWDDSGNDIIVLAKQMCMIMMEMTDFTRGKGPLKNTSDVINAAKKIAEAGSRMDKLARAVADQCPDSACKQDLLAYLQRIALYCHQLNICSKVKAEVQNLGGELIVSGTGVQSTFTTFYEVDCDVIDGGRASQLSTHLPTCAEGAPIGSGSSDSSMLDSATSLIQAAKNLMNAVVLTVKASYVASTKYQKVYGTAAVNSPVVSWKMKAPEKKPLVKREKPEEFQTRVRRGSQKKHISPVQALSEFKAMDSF
UniProt P61962: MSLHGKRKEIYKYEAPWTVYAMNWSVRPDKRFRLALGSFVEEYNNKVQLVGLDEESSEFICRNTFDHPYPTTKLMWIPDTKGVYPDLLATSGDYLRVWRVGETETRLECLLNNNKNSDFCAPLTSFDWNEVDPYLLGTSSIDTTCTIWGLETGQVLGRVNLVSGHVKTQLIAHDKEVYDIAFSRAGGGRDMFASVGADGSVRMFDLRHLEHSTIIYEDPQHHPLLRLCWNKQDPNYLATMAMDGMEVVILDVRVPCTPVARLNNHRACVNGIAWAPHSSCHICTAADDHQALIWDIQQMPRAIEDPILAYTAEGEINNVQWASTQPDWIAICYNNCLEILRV
UniProt O75935, whole entry, looked up: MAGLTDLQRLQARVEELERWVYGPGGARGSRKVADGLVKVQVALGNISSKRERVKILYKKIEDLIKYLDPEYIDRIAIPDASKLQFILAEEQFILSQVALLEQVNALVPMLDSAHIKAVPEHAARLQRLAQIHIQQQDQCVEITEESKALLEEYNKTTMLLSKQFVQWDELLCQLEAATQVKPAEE
UniProt P51397: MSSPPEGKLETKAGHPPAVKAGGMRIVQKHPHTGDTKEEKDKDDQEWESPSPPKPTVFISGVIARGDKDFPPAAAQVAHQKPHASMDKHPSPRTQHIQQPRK
UniProt Q9H467: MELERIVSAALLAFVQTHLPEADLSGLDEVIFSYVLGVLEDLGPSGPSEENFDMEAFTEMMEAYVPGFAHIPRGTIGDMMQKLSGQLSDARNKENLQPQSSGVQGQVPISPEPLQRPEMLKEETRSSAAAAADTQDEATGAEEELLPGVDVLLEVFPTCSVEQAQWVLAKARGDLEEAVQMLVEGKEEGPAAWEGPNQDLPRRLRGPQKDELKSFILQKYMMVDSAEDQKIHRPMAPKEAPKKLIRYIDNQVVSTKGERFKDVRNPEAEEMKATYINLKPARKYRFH
UniProt P10619: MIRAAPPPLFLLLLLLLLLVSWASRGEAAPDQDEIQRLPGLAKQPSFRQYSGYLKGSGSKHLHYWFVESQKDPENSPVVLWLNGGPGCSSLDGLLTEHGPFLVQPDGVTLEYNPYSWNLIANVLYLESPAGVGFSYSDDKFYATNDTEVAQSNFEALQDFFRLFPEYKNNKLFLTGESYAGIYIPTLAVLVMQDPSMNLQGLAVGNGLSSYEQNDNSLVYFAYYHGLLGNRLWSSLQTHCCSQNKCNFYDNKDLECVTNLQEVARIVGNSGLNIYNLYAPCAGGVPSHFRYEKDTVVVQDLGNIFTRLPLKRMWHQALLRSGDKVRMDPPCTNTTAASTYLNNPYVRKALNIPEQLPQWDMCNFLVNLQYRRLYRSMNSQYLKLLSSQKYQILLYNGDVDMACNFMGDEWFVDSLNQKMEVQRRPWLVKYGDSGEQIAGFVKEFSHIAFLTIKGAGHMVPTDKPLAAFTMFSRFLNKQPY
UniProt O43310: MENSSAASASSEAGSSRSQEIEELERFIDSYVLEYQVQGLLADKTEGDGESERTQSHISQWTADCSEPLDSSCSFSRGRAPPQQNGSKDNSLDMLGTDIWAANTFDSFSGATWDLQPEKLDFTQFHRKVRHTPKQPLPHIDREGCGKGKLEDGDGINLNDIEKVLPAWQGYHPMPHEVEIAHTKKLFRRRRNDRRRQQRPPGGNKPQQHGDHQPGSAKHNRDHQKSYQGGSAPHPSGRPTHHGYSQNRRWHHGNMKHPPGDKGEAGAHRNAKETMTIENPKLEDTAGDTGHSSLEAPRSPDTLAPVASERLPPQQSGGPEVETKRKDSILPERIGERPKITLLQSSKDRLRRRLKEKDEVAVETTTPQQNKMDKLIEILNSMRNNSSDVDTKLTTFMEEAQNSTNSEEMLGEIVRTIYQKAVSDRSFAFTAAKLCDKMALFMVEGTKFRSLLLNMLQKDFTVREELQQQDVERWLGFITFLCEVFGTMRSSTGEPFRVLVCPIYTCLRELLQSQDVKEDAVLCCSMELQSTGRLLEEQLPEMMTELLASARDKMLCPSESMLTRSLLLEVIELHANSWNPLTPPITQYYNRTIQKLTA

Assays:
Assay in all cases: log2 fold change, soluble protein after heating vs DMSO (PISA); higher = thermal stabilisation; K562 cells, 10 uM, 30 min; active = over 0.2 and 3.5 SD of the protein, either way, in both replicates (recomputed)
[1] = compound: C1=CC=C(C=C1)[C@H](COC2=CC3=C(C=C2)NC(=O)N3)NC(=O)C4=CC=CN(C4=O)CC5=CC(=C(C=C5)F)F
In short: (§1)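 Soluble protein was quantified by TMTpro 16plex LC-MS/MS after channel sums were equalised. It was obtained as the supernatant after 21,000xg for 90 min from pooled aliquots of K562 cells (2×10^6 cells/mL, 10 μM compound, 30 min) heated for 3 min across 48°C-58°C and extracted in PBS with 0.5% NP-40 at 4°C. Thermal stability values are relative to control samples and come from duplicates. They are given as log2 fold changes.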

[2] = compound: CC1=C(SC2=C1C(=N[C@H](C3=NN=C(N32)C)CC(=O)N)C4=CC=C(C=C4)Cl)C
In short: as §1

[3] = compound: CC1=C2C(=CC=C1)N=C(N(C2=O)C3=CC=CC=C3C)CN4C=NC5=C(N=CN=C54)N
In short: as §1

[4] = compound: Cc1sc2c(c1C)C(c1ccc(Cl)cc1)=N[C@@H](CC(=O)OC(C)(C)C)c1nnc(C)n1-2
In short: as §1

[5] = compound: c1ccc([C@@H]2C[C@H]2NC2CCNCC2)cc1
In short: as §1

Measured: log2 fold change

DBN1 isoform 3 (UniProt Q16643)
inactive: [1] 0.049 | [2] 0.019 | [3] -0.027 | [4] 0.044 | [5] 0.004

CTSH (UniProt P09668)
inactive: [1] 0 | [2] -0.046 | [3] -0.038 | [4] -0.035 | [5] 0.055

CWC27 (UniProt Q6UX04)
inactive: [1] -0.039 | [2] 0.097 | [3] 0.103 | [4] -0.03 | [5] -0.001

CTNNB1 (UniProt P35222)
inactive: [1] -0.039 | [2] 0.101 | [3] 0.312 | [4] -0.062 | [5] -0.149

CYP20A1 (UniProt Q6UW02)
inactive: [1] -0.013 | [2] 0.043 | [3] 0.067 | [4] -0.038 | [5] -0.017

CYBC1 (UniProt Q9BQA9)
inactive: [1] -0.028 | [2] 0.038 | [3] 0.016 | [4] 0.004 | [5] 0.019

DCTD isoform 2 (UniProt P32321)
inactive: [1] 0.011 | [2] 0.064 | [3] 0.011 | [4] -0.035 | [5] 0

CT45A5 (UniProt P0DMU8)
inactive: [1] 0.053 | [2] -0.162 | [3] -0.192 | [4] 0.114 | [5] 0

CUL5 (UniProt Q93034)
inactive: [1] 0.007 | [2] 0.046 | [3] 0.028 | [4] -0.004 | [5] 0.001

DCTN1 isoform 4 (UniProt Q14203)
inactive: [1] -0.052 | [2] -0.021 | [3] 0.096 | [4] 0.044 | [5] -0.008

CYFIP1 (UniProt Q7L576)
inactive: [1] 0.009 | [2] 0.005 | [3] -0.009 | [4] -0.005 | [5] -0.029

DCTN6 (UniProt O00399)
inactive: [1] 0.012 | [2] 0.049 | [3] 0.019 | [4] 0.009 | [5] -0.006

DCAF11 (UniProt Q8TEB1)
inactive: [1] -0.006 | [2] 0.05 | [3] 0.036 | [4] 0.043 | [5] -0.043

CT55 (UniProt Q8WUE5)
inactive: [1] -0.071 | [2] 0.049 | [3] 0.076 | [4] 0.012 | [5] 0.035

DAXX (UniProt Q9UER7)
inactive: [1] 0.166 | [2] 0.178 | [3] 0.197 | [4] 0.017 | [5] -0.101

CZIB (UniProt Q9NWV4)
inactive: [1] 0.011 | [2] 0.016 | [3] 0.027 | [4] -0.009 | [5] 0.029

DAP3 (UniProt P51398)
inactive: [1] 0.044 | [2] -0.016 | [3] -0.083 | [4] 0.046 | [5] -0.037

CTH (UniProt P32929)
inactive: [1] -0.024 | [2] 0.019 | [3] -0.006 | [4] -0.028 | [5] -0.006

CUL4A (UniProt Q13619)
inactive: [1] -0.011 | [2] 0.027 | [3] 0.029 | [4] -0.011 | [5] 0.011

CYP51A1 (UniProt Q16850)
inactive: [1] -0.096 | [2] 0.055 | [3] -0.037 | [4] -0.01 | [5] -0.001

CTU2 (UniProt Q2VPK5)
inactive: [1] -0.01 | [2] 0.03 | [3] -0.009 | [4] -0.024 | [5] -0.021

DCTN4 (UniProt Q9UJW0)
inactive: [1] 0.016 | [2] 0.016 | [3] 0 | [4] 0.004 | [5] 0.011

CYB5B, A0A499FJ32
inactive: [1] 0.029 | [2] 0.11 | [3] 0.233 | [4] -0.096 | [5] 0.028

CUL4B (UniProt K4DI93)
inactive: [1] 0.015 | [2] 0.036 | [3] 0.045 | [4] -0.039 | [5] -0.035

DCAF15 (UniProt Q66K64)
inactive: [1] 0.016 | [2] 0.153 | [3] -0.065 | [4] 0.038 | [5] -0.063

DCK (UniProt P27707)
inactive: [1] 0.015 | [2] 0.046 | [3] -0.04 | [4] -0.031 | [5] 0.011

CTSV (UniProt O60911)
inactive: [1] -0.02 | [2] -0.087 | [3] 0.021 | [4] -0.065 | [5] 0.005

CTSC (UniProt P53634)
inactive: [1] 0.018 | [2] -0.012 | [3] -0.039 | [4] -0.01 | [5] 0.056

CTNNA2 (UniProt P26232)
inactive: [1] 0.016 | [2] 0.02 | [3] 0.02 | [4] 0.02 | [5] -0.058

DCAF7 (UniProt P61962)
inactive: [1] 0.003 | [2] -0.152 | [3] 0.047 | [4] 0.016 | [5] 0

CSRP3 (UniProt P50461)
inactive: [1] -0.067 | [2] -0.038 | [3] -0.04 | [4] -0.01 | [5] 0.034

CUL1 (UniProt Q13616)
inactive: [1] 0.025 | [2] 0.02 | [3] -0.007 | [4] -0.016 | [5] 0.036

DARS (UniProt P14868)
inactive: [1] 0.026 | [2] -0.026 | [3] -0.016 | [4] 0.041 | [5] 0.012

CT47A1 (UniProt Q5JQC4)
inactive: [1] -0.007 | [2] -0.07 | [3] -0.022 | [4] 0.123 | [5] 0.027

CYB5R3 isoform 3 (UniProt P00387)
inactive: [1] 0.039 | [2] 0.041 | [3] 0.022 | [4] 0.004 | [5] -0.019

DAG1 (UniProt Q14118)
inactive: [1] -0.068 | [2] 0.074 | [3] 0.072 | [4] 0.016 | [5] 0.049

CTBP2 isoform 2 (UniProt P56545)
inactive: [1] -0.002 | [2] 0.033 | [3] 0.043 | [4] -0.037 | [5] -0.004

CST3 (UniProt P01034)
inactive: [1] -0.022 | [2] 0.03 | [3] 0.059 | [4] -0.059 | [5] -0.039

DCTN2 isoform 2 (UniProt Q13561)
inactive: [1] -0.03 | [2] 0.023 | [3] -0.006 | [4] -0.01 | [5] -0.024

CYB5R4 (UniProt Q7L1T6)
inactive: [1] -0.081 | [2] 0.048 | [3] 0.049 | [4] 0.001 | [5] -0.032

DCTN3 (UniProt O75935)
inactive: [1] -0.033 | [2] 0.046 | [3] 0.141 | [4] -0.042 | [5] -0.001

15 consecutive records out of the list so far, quoted:
CUL4B (UniProt K4DI93)
inactive: [1] 0.015 | [2] 0.036 | [3] 0.045 | [4] -0.039 | [5] -0.035

DCAF15 (UniProt Q66K64)
inactive: [1] 0.016 | [2] 0.153 | [3] -0.065 | [4] 0.038 | [5] -0.063

DCK (UniProt P27707)
inactive: [1] 0.015 | [2] 0.046 | [3] -0.04 | [4] -0.031 | [5] 0.011

CTSV (UniProt O60911)
inactive: [1] -0.02 | [2] -0.087 | [3] 0.021 | [4] -0.065 | [5] 0.005

CTSC (UniProt P53634)
inactive: [1] 0.018 | [2] -0.012 | [3] -0.039 | [4] -0.01 | [5] 0.056

CTNNA2 (UniProt P26232)
inactive: [1] 0.016 | [2] 0.02 | [3] 0.02 | [4] 0.02 | [5] -0.058

DCAF7 (UniProt P61962)
inactive: [1] 0.003 | [2] -0.152 | [3] 0.047 | [4] 0.016 | [5] 0

CSRP3 (UniProt P50461)
inactive: [1] -0.067 | [2] -0.038 | [3] -0.04 | [4] -0.01 | [5] 0.034

CUL1 (UniProt Q13616)
inactive: [1] 0.025 | [2] 0.02 | [3] -0.007 | [4] -0.016 | [5] 0.036

DARS (UniProt P14868)
inactive: [1] 0.026 | [2] -0.026 | [3] -0.016 | [4] 0.041 | [5] 0.012

CT47A1 (UniProt Q5JQC4)
inactive: [1] -0.007 | [2] -0.07 | [3] -0.022 | [4] 0.123 | [5] 0.027

CYB5R3 isoform 3 (UniProt P00387)
inactive: [1] 0.039 | [2] 0.041 | [3] 0.022 | [4] 0.004 | [5] -0.019

DAG1 (UniProt Q14118)
inactive: [1] -0.068 | [2] 0.074 | [3] 0.072 | [4] 0.016 | [5] 0.049

CTBP2 isoform 2 (UniProt P56545)
inactive: [1] -0.002 | [2] 0.033 | [3] 0.043 | [4] -0.037 | [5] -0.004

CST3 (UniProt P01034)
inactive: [1] -0.022 | [2] 0.03 | [3] 0.059 | [4] -0.059 | [5] -0.039

Next part:

DAGLB (UniProt Q8NCG7)
inactive: [1] 0.041 | [2] 0.028 | [3] 0.088 | [4] -0.027 | [5] 0.012

CYP46A1 (UniProt Q9Y6A2)
inactive: [1] 0.068 | [2] 0.028 | [3] 0.205 | [4] -0.054 | [5] 0.139

D2HGDH (UniProt Q8N465)
inactive: [1] 0.018 | [2] 0.181 | [3] 0.004 | [4] -0.024 | [5] -0.022

CWC15 (UniProt Q9P013)
inactive: [1] 0.07 | [2] 0.031 | [3] -0.046 | [4] 0.052 | [5] 0.047

DAP (UniProt P51397)
inactive: [1] 0.046 | [2] -0.006 | [3] 0.003 | [4] -0.009 | [5] 0.051

CUEDC2 (UniProt Q9H467)
inactive: [1] 0.036 | [2] 0.047 | [3] 0.038 | [4] 0.01 | [5] -0.022

CTPS1 (UniProt P17812)
inactive: [1] 0.007 | [2] 0.012 | [3] 0.017 | [4] -0.003 | [5] 0.007

CTSA (UniProt P10619)
inactive: [1] 0.004 | [2] -0.063 | [3] -0.034 | [4] -0.018 | [5] 0.03

CUX1 isoform 3 (UniProt P39880)
inactive: [1] 0 | [2] 0.025 | [3] 0.034 | [4] -0.009 | [5] 0.016

CTIF isoform 2 (UniProt O43310)
inactive: [1] -0.089 | [2] 0.024 | [3] 0.02 | [4] -0.026 | [5] 0.007

CYC1 (UniProt P08574)
inactive: [1] 0.018 | [2] 0.016 | [3] 0.03 | [4] -0.038 | [5] 0

CYCS (UniProt P99999)
inactive: [1] 0.012 | [2] 0.002 | [3] 0.023 | [4] -0.013 | [5] 0.011
